# Experimental data: the supplement of paper PMC3334620
# Over roughly 33,000 sequences, “E-score (-0.5 to 0.5)” has its median near -0.016; the highest 2% begin near 0.3. This is one part of the list.
# Biological target: T1, Yer184c (UniProt P39961)
# T1 sequence: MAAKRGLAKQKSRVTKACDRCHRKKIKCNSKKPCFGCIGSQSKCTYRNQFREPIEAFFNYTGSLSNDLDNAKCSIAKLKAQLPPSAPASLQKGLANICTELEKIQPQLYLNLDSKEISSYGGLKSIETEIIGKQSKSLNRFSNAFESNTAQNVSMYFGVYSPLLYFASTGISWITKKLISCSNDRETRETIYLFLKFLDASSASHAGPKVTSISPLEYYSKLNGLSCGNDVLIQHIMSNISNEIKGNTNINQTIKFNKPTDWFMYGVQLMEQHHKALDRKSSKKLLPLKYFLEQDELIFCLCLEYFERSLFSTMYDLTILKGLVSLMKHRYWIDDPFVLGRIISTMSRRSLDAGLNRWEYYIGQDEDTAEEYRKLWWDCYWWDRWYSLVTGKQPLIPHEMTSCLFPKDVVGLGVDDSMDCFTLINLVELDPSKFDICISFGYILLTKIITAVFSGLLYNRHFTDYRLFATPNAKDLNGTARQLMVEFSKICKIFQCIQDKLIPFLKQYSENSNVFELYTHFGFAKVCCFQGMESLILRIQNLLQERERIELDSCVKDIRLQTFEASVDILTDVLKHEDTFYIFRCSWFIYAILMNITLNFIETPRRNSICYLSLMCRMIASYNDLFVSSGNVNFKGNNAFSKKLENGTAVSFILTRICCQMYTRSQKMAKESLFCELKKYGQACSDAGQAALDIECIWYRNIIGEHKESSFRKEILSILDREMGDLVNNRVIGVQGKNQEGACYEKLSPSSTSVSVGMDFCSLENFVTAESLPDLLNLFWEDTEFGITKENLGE
# Assay: PBM E-score (8-mer binding enrichment) (E-score (-0.5 to 0.5)); higher = stronger / more preferred TF binding
# Settings: protein concentration: 100 nM; construct: GST-full length
# Method: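 Universal 'all 10-mer' protein binding microarrays (Agilent AMADID 015681) probed with GST-tagged S. cerevisiae TFs (full-length or DBD) made by in vitro transcription/translation (PURExpress), about 100-200 nM. Bound TF was detected with fluorescent anti-GST. Each ungapped 8-mer (which stands for itself and its reverse complement) is scored by the PBM enrichment score (E-score), a modified Wilcoxon-Mann-Whitney statistic from -0.5 to +0.5, computed with the Universal PBM Analysis Suite. Scale: above 0.35 generally sequence-specific binding.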
row,Sequence,PBM E-score
1,CTCTTCGC,-0.0959
2,CAGGGGAG,-0.307
3,GGCCCTTA,-0.226
4,ACGTAATA,0.119
5,ATTTATTC,0.329
6,GGTACATA,0.0871
7,GATCGATA,-0.00181
8,CCACAGAA,0.00134
9,GAAAACGC,-0.0248
10,ATTGGGTA,-0.222
11,AACACGAT,0.128
12,AATCGCAC,-0.221
13,CTCATAGC,-0.262
14,ACTTGCCA,-0.078
15,GAATTTTA,0.219
16,AGGGGGAT,-0.362
17,ATGTGAGG,0.0347
18,ACTAGAAC,0.0948
19,GGAATGCA,0.0114
20,AGTTAGAT,-0.0565
21,AGAGACTG,-0.246
22,ATCACCGC,-0.12

# Nothing new here: an excerpt of the list.
row,Sequence,PBM E-score
13,CTCATAGC,-0.262
14,ACTTGCCA,-0.078
15,GAATTTTA,0.219

# (continued)

row,Sequence,PBM E-score
1,ACCGAGCA,0.225
2,ACTCGCCA,-0.102
3,GTTTATCA,0.239
4,ACGAGTTG,-0.0069
5,ACGCGTTA,-0.0576
6,ATTCTGCC,0.201
7,CAGAGACC,-0.251
8,AATAGAAG,-0.0313
9,TAGCAGGA,-0.149
10,AAGTTCTG,-0.0496
11,GGGCGAAA,0.138
12,AACCTCGG,0.25
13,GGTTAGAC,0.0649
14,CTTAGAAA,0.203
15,CTGCTCGC,-0.091
16,CTGGATAC,-0.0922
17,CGCGCGGA,0.171
18,CTCGCCTC,-0.252
19,CAAATCCC,-0.116
20,CTGTCCGA,0.24
21,AACAGGCT,-0.222
22,CACAAGAC,-0.166

row,Sequence,PBM E-score
1,CATATCCA,-0.172
2,ATGGATCA,-0.234
3,AAGCCTGG,-0.145
4,CCTGTGGC,-0.218
5,TAACTCTA,-0.102
6,GCGCTAGA,-0.0657
7,CAGAACAC,-0.252
8,AAGGTTCA,-0.0083
9,TGGCTTAA,0.175
10,TCGCTAGA,-0.0195
11,AAGAGTAT,-0.0392
12,AGCACAGC,-0.0164
13,AGGCCGAC,0.0134
14,TTGGCCAA,-0.324
15,AGCTGTGG,-0.255
16,GACTTCGC,0.0456
17,CGCTGTTC,-0.0698
18,CTGTTTGA,0.0151
19,AATGTAGG,-0.29
20,CCCTAGAC,-0.189
21,AGTCCCTG,-0.37
22,AGTTTTAA,0.159

# A few values from above:
# Under PBM E-score, CTGGATAC has the entry -0.0922
# Under PBM E-score, ACGCGTTA has the entry -0.0576

# (listing goes on)

row,Sequence,PBM E-score
1,AGGCTACG,-0.268
2,ACCGAACG,0.235
3,GCGCGAAA,0.222
4,GTAAAAAC,0.0726
5,CCTAAACG,0.079
6,GCTCCCTA,-0.376
7,GCTCGGAA,0.334
8,ACACTCTG,-0.101
9,CCGCCACC,-0.219
10,ACTCTGCG,0.013
11,ATAGCGCG,0.0679
12,CTAATCCA,-0.0737
13,GAACTATC,-0.0632
14,CAGAACCG,0.0238
15,TAGCCCAA,-0.184
16,GTGCACAC,-0.194
17,CAACAAAC,0.141
18,AGACTCGA,-0.0489
19,ATTTGGCG,0.00852
20,GGTACCAC,-0.0264
